No constants are given. Whether binding was seen depends on the method and setting. In cells and extracts the contact can be indirect. Binding can be weak; no strength is given.
Target: RFP-SUMO2 (UniProt P61956)
Test: co-IP; RFP-Trap A beads (Chromotek) on lysates of U2OS cells transfected with RFP-SUMO2, RFP-SUMO3 or RFP empty vector, mock or 2.5 µg/ml bleocin; EBC buffer (50 mM Tris pH 7.3, 0.5% NP-40, 1 mM MgCl2, 50 mM iodoacetamide), Benzonase, NaCl brought to 300 mM; blot with RIF1 antibody

Sequences of proteins named here, by UniProt entry; tags and fusion partners are left off. A change or cut given only in a name is not applied to a line headed by its entry.
UniProt P61956: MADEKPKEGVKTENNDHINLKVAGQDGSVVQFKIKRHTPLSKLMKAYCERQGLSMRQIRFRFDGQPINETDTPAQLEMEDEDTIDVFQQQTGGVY
UniProt Q5UIP0: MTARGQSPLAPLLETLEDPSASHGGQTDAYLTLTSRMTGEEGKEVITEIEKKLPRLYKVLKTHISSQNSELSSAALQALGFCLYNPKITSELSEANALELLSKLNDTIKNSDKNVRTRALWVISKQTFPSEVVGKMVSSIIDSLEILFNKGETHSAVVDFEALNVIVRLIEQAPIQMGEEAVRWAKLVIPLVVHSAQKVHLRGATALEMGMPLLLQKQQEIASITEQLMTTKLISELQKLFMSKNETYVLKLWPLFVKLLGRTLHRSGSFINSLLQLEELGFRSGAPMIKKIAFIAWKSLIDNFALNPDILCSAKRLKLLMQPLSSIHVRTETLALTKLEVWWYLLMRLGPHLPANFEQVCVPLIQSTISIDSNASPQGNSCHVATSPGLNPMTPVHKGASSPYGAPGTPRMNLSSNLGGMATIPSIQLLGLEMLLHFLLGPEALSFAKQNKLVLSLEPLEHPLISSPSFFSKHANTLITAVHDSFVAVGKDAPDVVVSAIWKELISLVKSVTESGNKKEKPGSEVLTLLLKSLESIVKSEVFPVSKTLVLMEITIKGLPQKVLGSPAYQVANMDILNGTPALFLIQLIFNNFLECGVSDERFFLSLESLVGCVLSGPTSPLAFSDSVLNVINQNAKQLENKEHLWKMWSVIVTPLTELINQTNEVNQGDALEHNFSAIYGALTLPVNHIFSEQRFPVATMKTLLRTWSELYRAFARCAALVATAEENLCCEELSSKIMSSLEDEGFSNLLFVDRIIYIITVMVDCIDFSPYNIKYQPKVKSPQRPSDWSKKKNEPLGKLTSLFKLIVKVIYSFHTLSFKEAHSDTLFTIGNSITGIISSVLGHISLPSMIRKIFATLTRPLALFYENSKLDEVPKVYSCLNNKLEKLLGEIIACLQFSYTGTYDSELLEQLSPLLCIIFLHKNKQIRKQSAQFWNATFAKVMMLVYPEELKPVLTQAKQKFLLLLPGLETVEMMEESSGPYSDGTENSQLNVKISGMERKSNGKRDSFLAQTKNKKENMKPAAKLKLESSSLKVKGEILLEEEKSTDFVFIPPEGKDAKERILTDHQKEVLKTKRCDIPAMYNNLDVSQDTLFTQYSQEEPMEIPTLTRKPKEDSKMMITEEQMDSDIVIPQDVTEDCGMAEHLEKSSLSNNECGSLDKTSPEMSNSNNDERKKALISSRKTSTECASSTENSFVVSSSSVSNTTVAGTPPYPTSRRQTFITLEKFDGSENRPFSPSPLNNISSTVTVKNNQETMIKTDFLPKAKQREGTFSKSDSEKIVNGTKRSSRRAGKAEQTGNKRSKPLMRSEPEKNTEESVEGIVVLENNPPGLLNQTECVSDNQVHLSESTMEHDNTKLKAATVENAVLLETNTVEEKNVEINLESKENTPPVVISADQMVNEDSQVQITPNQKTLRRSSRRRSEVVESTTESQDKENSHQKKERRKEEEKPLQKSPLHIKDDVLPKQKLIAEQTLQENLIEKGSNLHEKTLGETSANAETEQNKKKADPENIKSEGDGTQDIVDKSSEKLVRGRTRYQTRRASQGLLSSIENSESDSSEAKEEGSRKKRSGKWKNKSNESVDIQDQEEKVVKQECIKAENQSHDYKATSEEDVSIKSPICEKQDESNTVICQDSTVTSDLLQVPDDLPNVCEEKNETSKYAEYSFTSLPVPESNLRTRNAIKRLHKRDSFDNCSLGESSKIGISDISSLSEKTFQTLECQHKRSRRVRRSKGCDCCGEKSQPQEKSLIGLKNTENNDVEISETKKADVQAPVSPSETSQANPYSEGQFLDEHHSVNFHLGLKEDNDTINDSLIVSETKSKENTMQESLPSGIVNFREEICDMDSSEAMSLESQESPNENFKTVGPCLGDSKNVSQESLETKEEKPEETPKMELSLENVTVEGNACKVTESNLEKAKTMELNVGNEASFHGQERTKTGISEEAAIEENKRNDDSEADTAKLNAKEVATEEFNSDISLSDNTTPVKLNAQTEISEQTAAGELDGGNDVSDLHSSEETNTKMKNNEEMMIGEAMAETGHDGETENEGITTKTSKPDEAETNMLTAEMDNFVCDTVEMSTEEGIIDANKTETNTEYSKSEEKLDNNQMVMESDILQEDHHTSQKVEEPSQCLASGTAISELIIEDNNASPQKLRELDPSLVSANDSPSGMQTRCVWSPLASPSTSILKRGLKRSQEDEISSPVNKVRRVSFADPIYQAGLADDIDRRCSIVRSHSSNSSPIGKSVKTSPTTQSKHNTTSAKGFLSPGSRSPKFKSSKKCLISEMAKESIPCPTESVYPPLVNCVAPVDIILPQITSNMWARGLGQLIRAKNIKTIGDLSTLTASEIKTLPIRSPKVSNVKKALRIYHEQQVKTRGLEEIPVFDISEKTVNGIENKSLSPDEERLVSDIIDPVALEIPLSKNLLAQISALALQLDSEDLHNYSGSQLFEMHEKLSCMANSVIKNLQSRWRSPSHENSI

## RIF1 (from UniProt Q5UIP0 1-2472)
  binding: binds

Source: PMC5727183
